Part of at least one peptide drawing is inferred or uncertain, most often the ends. Where no end group is shown, it is not given here.
Assays:
type IV collagen = target: T1, type IV collagen (Homo sapiens, UniProt P02462+P08572); assay: Inhibition of 3H-heparin binding to type IV collagen coated on plastic by peptide in solution; conditions: peptide in solution 0.5 mg/ml to 5 μg/ml; 3H-heparin 500 ng per well; type IV collagen coated at 60 μg/ml
T1 construct: intact, native type IV collagen coated on plastic
Procedure: Peptide Hep-III in solution (and not absorbed to plastic), was screened for the ability to inhibit the binding of heparin to intact, native type IV collagen coated on plastic. This experimental approach avoids problems due to differential coating of peptides in heparin binding assays. Type IV collagen at 60 μg/ml in PBS was coated on 96-well plates, using 50 μl per well and dried overnight at 28° C. The wells were then treated for two hours with 2 mg/ml BSA in wash buffer (described above in Example 1). Peptide Hep-III at various dilutions ranging from 0.5 mg/ml to 5 μg/ml in PBS and CHAPS (cholamido-propyl-dimethyl-ammoniopropane-sulfonate) (a detergent used to avoid non-specific sticking) was co-incubated with a standard amount of ^3 H-heparin (500 ng per well […]) for two hours at 37° C. and the mixture was then transferred to the collagen coated plate (50 μl) and allowed to incubate for another two hours at 37° C. The wells were then washed and radioactivity was counted as described above.

Chains of the proteins cited; added tags and fusions are not shown. Residues count along the entry.
UniProt P02462, 173-1669: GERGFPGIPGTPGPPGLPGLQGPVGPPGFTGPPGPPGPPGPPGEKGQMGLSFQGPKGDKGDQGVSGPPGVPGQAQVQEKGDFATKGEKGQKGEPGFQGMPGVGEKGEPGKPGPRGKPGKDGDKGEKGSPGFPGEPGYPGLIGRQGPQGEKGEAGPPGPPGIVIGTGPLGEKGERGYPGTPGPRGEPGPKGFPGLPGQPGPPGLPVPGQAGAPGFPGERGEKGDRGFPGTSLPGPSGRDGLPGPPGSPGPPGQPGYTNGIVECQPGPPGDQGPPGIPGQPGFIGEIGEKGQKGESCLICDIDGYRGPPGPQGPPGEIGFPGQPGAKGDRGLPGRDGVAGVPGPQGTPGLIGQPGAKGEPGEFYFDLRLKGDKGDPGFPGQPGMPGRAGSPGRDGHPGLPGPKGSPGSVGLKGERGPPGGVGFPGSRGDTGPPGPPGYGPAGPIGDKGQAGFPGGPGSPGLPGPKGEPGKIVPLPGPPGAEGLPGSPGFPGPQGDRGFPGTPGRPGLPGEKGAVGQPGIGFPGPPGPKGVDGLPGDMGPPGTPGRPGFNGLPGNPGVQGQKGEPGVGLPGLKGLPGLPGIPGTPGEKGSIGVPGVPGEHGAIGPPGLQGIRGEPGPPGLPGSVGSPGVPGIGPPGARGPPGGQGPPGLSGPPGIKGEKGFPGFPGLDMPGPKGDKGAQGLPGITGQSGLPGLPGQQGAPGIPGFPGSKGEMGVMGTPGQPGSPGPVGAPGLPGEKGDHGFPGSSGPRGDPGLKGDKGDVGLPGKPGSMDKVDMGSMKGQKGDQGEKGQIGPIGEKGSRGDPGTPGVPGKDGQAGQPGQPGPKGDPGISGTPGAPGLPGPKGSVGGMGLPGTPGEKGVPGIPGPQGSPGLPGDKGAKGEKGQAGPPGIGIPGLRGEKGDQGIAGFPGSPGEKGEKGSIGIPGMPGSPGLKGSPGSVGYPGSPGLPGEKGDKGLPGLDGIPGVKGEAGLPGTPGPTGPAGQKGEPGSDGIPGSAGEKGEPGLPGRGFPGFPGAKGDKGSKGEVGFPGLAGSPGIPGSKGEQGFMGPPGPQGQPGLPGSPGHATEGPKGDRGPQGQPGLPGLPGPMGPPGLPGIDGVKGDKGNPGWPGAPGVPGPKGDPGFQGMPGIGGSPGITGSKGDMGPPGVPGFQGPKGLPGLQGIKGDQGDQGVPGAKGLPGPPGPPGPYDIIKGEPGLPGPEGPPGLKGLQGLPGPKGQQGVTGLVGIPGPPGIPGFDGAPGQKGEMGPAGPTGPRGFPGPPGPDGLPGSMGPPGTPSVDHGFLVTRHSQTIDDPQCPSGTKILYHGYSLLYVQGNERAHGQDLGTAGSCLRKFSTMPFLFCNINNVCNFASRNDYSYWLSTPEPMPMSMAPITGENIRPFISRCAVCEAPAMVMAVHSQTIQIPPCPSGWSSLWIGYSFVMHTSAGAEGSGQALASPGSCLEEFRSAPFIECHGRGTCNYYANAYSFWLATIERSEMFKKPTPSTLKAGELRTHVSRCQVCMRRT
UniProt P08572, 184-1712: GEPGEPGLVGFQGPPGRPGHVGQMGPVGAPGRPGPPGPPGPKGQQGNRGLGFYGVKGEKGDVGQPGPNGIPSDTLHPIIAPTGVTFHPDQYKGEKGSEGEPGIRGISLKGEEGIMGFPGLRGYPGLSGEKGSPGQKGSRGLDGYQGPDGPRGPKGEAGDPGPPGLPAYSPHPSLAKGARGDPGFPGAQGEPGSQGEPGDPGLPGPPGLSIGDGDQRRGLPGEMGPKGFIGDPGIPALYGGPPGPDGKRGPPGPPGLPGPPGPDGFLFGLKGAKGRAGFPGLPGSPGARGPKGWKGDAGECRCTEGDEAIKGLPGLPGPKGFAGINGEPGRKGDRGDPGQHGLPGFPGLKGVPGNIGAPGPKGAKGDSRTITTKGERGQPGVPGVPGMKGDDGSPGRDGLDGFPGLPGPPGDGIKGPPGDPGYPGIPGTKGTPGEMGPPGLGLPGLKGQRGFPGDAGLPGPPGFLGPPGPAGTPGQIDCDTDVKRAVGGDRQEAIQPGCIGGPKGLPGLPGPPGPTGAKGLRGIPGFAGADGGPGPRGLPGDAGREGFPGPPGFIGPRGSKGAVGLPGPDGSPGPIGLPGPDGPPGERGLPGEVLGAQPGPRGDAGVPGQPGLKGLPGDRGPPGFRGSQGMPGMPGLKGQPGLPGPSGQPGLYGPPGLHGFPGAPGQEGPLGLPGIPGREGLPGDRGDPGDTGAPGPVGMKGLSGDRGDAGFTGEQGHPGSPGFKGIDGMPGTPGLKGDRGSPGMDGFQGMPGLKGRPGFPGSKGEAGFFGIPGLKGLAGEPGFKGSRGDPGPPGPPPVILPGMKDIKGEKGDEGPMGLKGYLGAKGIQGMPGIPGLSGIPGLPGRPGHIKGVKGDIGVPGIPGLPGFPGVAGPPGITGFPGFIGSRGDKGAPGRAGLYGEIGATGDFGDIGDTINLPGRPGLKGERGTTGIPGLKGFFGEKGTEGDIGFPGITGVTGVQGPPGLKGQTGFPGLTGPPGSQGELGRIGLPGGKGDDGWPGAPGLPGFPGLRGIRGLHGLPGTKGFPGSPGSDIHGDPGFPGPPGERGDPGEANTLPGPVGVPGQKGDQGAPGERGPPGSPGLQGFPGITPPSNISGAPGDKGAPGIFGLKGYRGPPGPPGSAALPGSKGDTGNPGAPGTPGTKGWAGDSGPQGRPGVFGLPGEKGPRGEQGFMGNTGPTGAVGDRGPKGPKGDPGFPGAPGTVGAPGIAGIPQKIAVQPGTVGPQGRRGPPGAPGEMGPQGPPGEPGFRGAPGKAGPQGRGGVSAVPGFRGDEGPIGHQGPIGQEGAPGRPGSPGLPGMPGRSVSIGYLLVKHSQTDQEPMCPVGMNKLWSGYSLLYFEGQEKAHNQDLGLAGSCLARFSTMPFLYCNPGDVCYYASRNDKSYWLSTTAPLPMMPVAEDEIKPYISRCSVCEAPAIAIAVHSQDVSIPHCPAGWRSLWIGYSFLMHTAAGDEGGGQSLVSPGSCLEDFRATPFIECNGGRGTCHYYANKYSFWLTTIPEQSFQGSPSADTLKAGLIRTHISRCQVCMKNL

melanoma cells = assay: Inhibition of 125I-Hep-III binding to melanoma cell surface by excess unlabeled peptide; parameters: species or system murine; conditions: unlabeled peptide up to 500-fold excess; 15 min, 4° C.
Procedure: (§1) Melanoma and endothelial cells were grown in culture as discussed in Examples 4, 5, 6, and 7A (supra). On the day of the experiment, the cells were harvested by trypsinization (supra) and were co-incubated with 50 μl of peptide Hep-III. 50 μl a constant amount of ^125 I-labeled peptide Hep-III was mixed with increasing concentrations of unlabeled peptide Hep-III or a control peptide (maximal excess of unlabeled peptide: 500-fold over radiolabeled Hep-III). 50 μl of each concentration of unlabeled peptide which was mixed with radiolabeled Hep-III were then added to cells in suspension (5,000 cells per concentration of peptide). The cells were incubated with the mixture of unlabeled-radiolabeled peptide for 15 min. at 4° C. and they were then pelleted. The cells were subsequently washed and bound radioactivity was quantitated as described in Example 7A. […] These experiments provide confirmation that a specific interaction occurs between melanoma and endothelial-cell surfaces and peptide Hep-III.

endothelial cells = assay: Inhibition of 125I-Hep-III binding to endothelial cell surface by excess unlabeled peptide; parameters: species or system bovine; conditions: unlabeled peptide up to 500-fold excess; 15 min, 4° C.
Procedure: as §1

K-1735-M4 melanoma cells = assay: Adhesion of melanoma cells to peptide-coated wells; type: cell-based, murine; conditions: peptide coated at increasing concentrations
Description: Highly metastatic murmine melanoma cells, K-1735-M4 were originally provided by Dr. I. J. Fidler of Anderson Hospital, University of Texas Health Sciences Center, Houston, Tex. When the cells were received, a large number of early passage cells were propagated and frozen in liquid nitrogen. The tumor cells are usually cultured in vitro for no longer than six weeks. Following this period, the cells are discarded and new cells withdrawn from storage for use in further in vitro or in vivo experiments. This precaution is taken to minimize phenotypic drift that can occur as a result of continuous in vitro passage. The cells were cultured in Dulbecco's Modified Eagle's Medium containing 5% heat inactivated fetal calf serum. The cultures were grown in 37° C. incubators with a humidified atmosphere containing 5% CO2. Cells were subcultured twice weekly by releasing cells gently from the flask, using 0.05% trypsin and 1 mM EDTA.
Cultures of cells which were 60-80% confluent were metabolically labeled for 24 hours with the addition of 3 mCi/ml of ^3 H-td (tritiated thymidine). On the day of the assay, the cells were harvested by trypsinization, the trypsin was inhibited by the addition of serum, and the cells were washed free of this mixture and resuspended in DMEM buffered with HEPES at pH 7.2. […] The solubilized cells were then quantitated using a liquid scintillation counter. […]

[1] = system: Bovine aortic endothelial cells; assay: Direct adhesion of endothelial cells to peptide-coated plastic; type: cell-based; conditions: coated at increasing concentrations; 120 min, 37° C.
Procedure: Bovine aortic endothelial cells were isolated according to the following protocol. Aortas were obtained from a local slaughterhouse, washed in cold phosphate buffered saline (PBS) (136 mM NaCl, 2.6 mM KCl, 15.2 mM Na2 HPO4, pH 7.2) and processed within 2 hours. Crude collagenase (CLS III, 125-145 units per mg dry weight, Cooper Biomedical) was used at 2 mg/ml in Dulbecco's modified Eagle's medium (DMEM) (GIBCO). The vessel was clamped at the distal end, filled with the collagenase-PBS solution and digestion was carried out for 10 minutes. The lumenal contents were harvested, followed by the addition of fresh collagenase for two additional 10-minute periods. The enzyme-cell suspensions were added to an equal volume of DMEM containing 10% fetal bovine serum (FBS) to inhibit the enzyme and spun in a centrifuge at 400×g for 10 minutes. The resulting cell pellet was resuspended in DMEM containing 10% FBS, 100 units/ml of penicillin G, 100 μg/ml of streptomycin and 100 μg/ml of crude fibroblast growth factor. Cells are in 75 cm^2 flasks in a humidified 5% CO2 atmosphere at 37° C. Cultures were fed twice a week with the same medium and cells were used in assays when approximately 75% confluent. The cells were labeled for 24 hours prior to use with a mixture of ^35 S-labeled amino acids (3 mCi). […]

Sequence	inhibition of heparin binding to type IV collagen (type IV collagen)	competition of radiolabeled Hep-III binding to melanoma cells by unlabeled peptide (melanoma cells)	competition of radiolabeled Hep-III binding to endothelial cells by unlabeled peptide (endothelial cells)	melanoma cell adhesion to coated peptide (in words) (K-1735-M4 melanoma cells)	endothelial cell adhesion to coated substrate (in words) [1]
GPYDIIKGQP [peptide 17, GPYDIIKGQP]	unable to compete	–	–	–	–
GHATEGPK [peptide 15, GHATEGPK, reference compound]	unable to compete	failed to compete	–	–	–
GDSRTITTKGERGQP [ET-2, GDSRTITTKGERGQP, reference compound]	–	–	failed to compete	did not show any adhesion	did not show any significant adhesion
